Primary screen of a compound library

Results are given as percent effect.
The record does not define 0% and 100%; most values in the screen are far below 50% and negative numbers occur (in some assays of this library far below -100).
This is an unselected part of the compounds tested.
A dash means the value is not listed here; it may have been measured.

Mtb growth Cornell: 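Whole-cell assay for inhibitors of Mycobacterium tuberculosis growth, labelled Cornell in the record; the read-out is not stated. The concentration is filed as 10 mM, unlikely as a test dose, so the dose is not known. The record gives no direction; compounds strong in two other growth screens of this library score well above the rest, so higher reads as stronger inhibition. About 53,000 compounds were tested under these conditions; 1.7% (about 900) showed 50% or more at least once.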
Mtb heat-shock: 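Assay on Mycobacterium tuberculosis, filed only as a heat shock assay from Cornell; the read-out is not stated. The concentration is filed as 10 mM, unlikely as a test dose, so the dose is not known. The record gives no direction; compounds that gave an IC50 in retests scored well above the rest, so higher reads as stronger inhibition. Size under these conditions: about 69,000 compounds, about 930 of them at 50% or above in at least one test.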

compound,Mtb growth Cornell,Mtb heat-shock
Cc1cc(C(=O)N2CCc3ncnc(N4CCSCC4)c3CC2)[nH]n1,-21.03%,-31.38%
CN(Cc1nc(-c2ccoc2)no1)C1CCCN(c2cccnn2)C1 (centres unmarked),-,-10.46%
Cc1nccn1C1CCCN(C(=O)c2cccc(OCC(N)=O)c2)C1 (centres unmarked),-,2.853%
Cn1nccc1CNC(=O)Nc1cc(C(F)(F)F)c[nH]c1=O,-,0%
[H][C@]12CC[C@]([H])(CN(C3Cc4ccccc4C3)C1)N(C(=O)N(C)C)C2,-,12.52%
Cc1nn(C)c2nc(N(CCN(C)C)C3CCCC3)sc12,19.35%,-9.506%
O=S(=O)(CC1CCCN1S(=O)(=O)C1CC1)c1ccccc1 (centres unmarked),15.02%,-5.07%
CC(C)COCC(NC(=O)c1ccncc1)c1ccco1 (centres unmarked),-,2.246%
COc1ncc(CN2CCC3(CCNC(=O)CC3)CC2)cn1,17.73%,-2.053%
[H][C@]12CN(Cc3cccs3)CCN1C[C@H](c1ccccc1)[C@H]2C(=O)NC,-14.03%,30.07%
CCn1ncnc1CN(C/C=C/c1ccccc1)CCOC,16.91%,-13.31%
[H][C@@]12CN(c3nnc(C)s3)C[C@H](C(=O)NCc3ccco3)[C@]1([H])CCO2,-14.84%,18.42%
CC(Cn1cccn1)NC(=O)c1cccs1 (centres unmarked),-14.73%,-13.57%
O=c1c(-c2ccnc(NC3CCOCC3)n2)cnc2sc(Cl)cn12,-,-18.9%
CCc1nc(N2CCC3(CC2)OCCCC3O)ncc1C (centres unmarked),-2.627%,-27.89%
Cl.c1nc(CCC2CCCN2)cc(N2CCCCCC2)n1 (centres unmarked),4.76%,-9.47%
Cc1nccc(N[C@H]2CN(CCC(=O)NC3CCCC3)C[C@@H]2C2CC2)n1,7.16%,3.121%
COc1ccc(-c2cnc(NC(C)=O)[nH]2)cc1,13.84%,7.705%
CC(=O)NC1CCCN(C(=O)NCc2cccnc2N(C)C)C1 (centres unmarked),-,-2.594%
CCCN(C(=O)CNC1CCc2ncnn2C1)C1=CCCCC1 (centres unmarked),-,-8.034%
CCN1CCN(S(=O)(=O)c2cc(C)c(Cl)cc2Cl)CC1,1.231%,-17.4%
[H][C@@]12CCN(Cc3ccco3)C[C@@]1([H])O[C@@H](c1ccnc(C)n1)C2,-10.7%,-19.82%
COc1nccc(N2CC[C@@H](N3CCC(O)CC3)[C@H](O)C2)c1C#N,-23.08%,-26.48%
COc1c[nH]c(C(=O)Nc2nc(C)cs2)cc1=O,29.98%,69.04%
Cc1noc(C)c1CCC(=O)N(C)C(C)c1cccs1 (centres unmarked),-19.11%,-17.3%
CC(C)c1cc(-c2cnn(C)c2C2CC2)c(C#N)c(N)n1,-11.24%,9.128%
Cc1nc2c(c(N[C@@H](CO)C(N)=O)n1)Cc1ccccc1OC2,9.292%,-0.6888%
Cc1nn(C)c(C)c1OCC(=O)NCC(O)c1ccsc1 (centres unmarked),-,-9.961%
CCC(=O)N1CCCC1c1ccsc1 (centres unmarked),20.07%,14.1%
Cc1ccc(Oc2ncccc2CNS(=O)(=O)N2CCOCC2)cn1,-34.17%,-2.274%
O=C(NCCCNC(=O)c1cccc(O)c1)Nc1ccc(F)cc1F,-30.37%,23.54%
COc1ccccc1OCc1nc2cc3c(cc2c(=O)o1)OCCCO3,-,-142.5%
CN1C(=O)C2(CCNCC2)c2cc(F)ccc21.Cl,-8.858%,0.821%
O=C(O)C1CCCN1c1nc(-c2ccc(Cl)c(Cl)c2)cc(C(F)(F)F)n1 (centres unmarked),67.65%,-27.21%
[H][C@]12C[C@@H](Cn3cncn3)N(C(C)=O)[C@@]1([H])CCN(C(=O)c1ccoc1)C2,-5.366%,-15.6%
CCOc1ccccc1N(C)C(=O)c1ccc(Cl)cn1,-,-26.68%
CN(C)Cc1cc(=O)n2c(n1)CN(C(=O)Cc1ccsc1)CCC2.O=C(O)C(F)(F)F,-13.47%,2.134%
CC(C)C(=O)N1CCCC12CCN(C(=O)c1ccno1)C2 (centres unmarked),-19.4%,-14.81%
CCC(NC(=O)NCC(=O)Nc1ccc(F)cc1)c1ccncc1 (centres unmarked),-,-3.395%
O=C(CN1CC(c2nc(-c3ccco3)no2)C1)NCCc1ccccc1.O=C(O)C(=O)O,14.54%,-7.325%
CC(C)(C)c1cn2nc(N3CCOC(Cn4cncn4)C3)sc2n1 (centres unmarked),11.79%,28.17%
CN(Cc1ccco1)C(=O)C1CSCN1C(=O)c1cccnc1 (centres unmarked),12.86%,-1.832%
Cc1ccccc1-c1cncc(C2CCN(C3CCOCC3)CC2)n1,6.29%,-6.08%
Cc1ccc2cc(CNCCCN3CCOCC3)c(=O)[nH]c2c1,-38.85%,11.13%
Cc1noc(C(C)C)c1C(=O)NS(=O)(=O)c1cccnc1,-18.77%,-8.608%
COC(=O)COc1cc(NCc2c(C)noc2C)c(Cl)cc1C,41.63%,-24.96%
CC(C)(C)c1nc(CN2CCc3onc(-c4cccc(F)c4)c3C2)no1,10.39%,31.99%

The last 5 entries again:

* Cc1ccccc1-c1cncc(C2CCN(C3CCOCC3)CC2)n1 : Mtb growth Cornell: 6.29%; Mtb heat-shock: -6.08%
* Cc1ccc2cc(CNCCCN3CCOCC3)c(=O)[nH]c2c1 : Mtb growth Cornell: -38.85%; Mtb heat-shock: 11.13%
* Cc1noc(C(C)C)c1C(=O)NS(=O)(=O)c1cccnc1 : Mtb growth Cornell: -18.77%; Mtb heat-shock: -8.608%
* COC(=O)COc1cc(NCc2c(C)noc2C)c(Cl)cc1C : Mtb growth Cornell: 41.63%; Mtb heat-shock: -24.96%
* CC(C)(C)c1nc(CN2CCc3onc(-c4cccc(F)c4)c3C2)no1 : Mtb growth Cornell: 10.39%; Mtb heat-shock: 31.99%

Measurements from “University of Dundee, Small-Polar-MMV Screening Library” (2021), ChEMBL document CHEMBL3988442.